Test results reported in patent US7422745 (IXSYS, dated 2008).
Numbering of substitutions follows the chain as printed. Results are given in words; binding and its absence hold for the method and conditions named. Binding can be weak; no strength is given. Blank lines part the entries; values can stand above or below the binder they belong to.

Target: integrin αvβ3 (human vitronectin receptor), purified from human placenta (human)
Experiment: ELISA titration of bacterial cell lysate containing Fab on immobilized αvβ3, detection with goat anti-human kappa-alkaline phosphatase

binding: binds
B1: LM609 grafted antibody variant Y100 (Fab, V domains shown)
VH: QVQLVESGGGVVQPGRSLRLSCAASGFTFSSYDMSWVRQAPGKGLEWVAKVSSGGGSTYYLDTVQGRFTISRDNSKNTLYLQMNSLRAEDTAVYYCARHNYGSYAYWGQGTTVTVSS
VL: EIVLTQSPATLSLSPGERATLSCQASQSISNHLHWYQQRPGQAPRLLIRYRSQSISGIPARFSGSGSGTDFTLTISSLEPEDFAVYYCQQSGSWPHTFGGGTKVEIK

binding: binds
B2: LM609 grafted antibody variant Y101 (Fab, V domains shown)
VH: B1 VH with Y104F, A105Y
VL: B1 VL
